# Measured values reported in publication doi:10.1101/2022.05.17.492278.
# Chains of the proteins cited; added tags and fusions are not shown. Lines headed by an entry give the natural chain unless they say otherwise; changes in a name come on top. Residues count along the entry.
# UniProt Q9BWN1, 1-212: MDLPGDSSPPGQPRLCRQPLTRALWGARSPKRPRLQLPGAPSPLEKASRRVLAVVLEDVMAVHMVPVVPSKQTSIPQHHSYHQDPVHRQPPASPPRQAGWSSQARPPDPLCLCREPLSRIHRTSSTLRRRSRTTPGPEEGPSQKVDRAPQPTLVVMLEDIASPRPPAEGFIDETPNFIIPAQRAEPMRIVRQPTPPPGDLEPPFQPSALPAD
# UniProt P45973, whole entry: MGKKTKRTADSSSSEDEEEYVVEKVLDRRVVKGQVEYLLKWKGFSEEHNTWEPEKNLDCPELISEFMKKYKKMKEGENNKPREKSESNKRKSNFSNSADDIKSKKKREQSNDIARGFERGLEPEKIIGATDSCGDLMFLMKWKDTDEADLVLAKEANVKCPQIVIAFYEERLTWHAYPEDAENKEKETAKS
# UniProt P83916, whole entry: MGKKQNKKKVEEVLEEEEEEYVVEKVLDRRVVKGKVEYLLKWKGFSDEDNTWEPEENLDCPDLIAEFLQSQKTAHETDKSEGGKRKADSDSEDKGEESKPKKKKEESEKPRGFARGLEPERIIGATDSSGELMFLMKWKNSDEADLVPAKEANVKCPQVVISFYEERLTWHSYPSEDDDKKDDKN
# UniProt Q13185, whole entry: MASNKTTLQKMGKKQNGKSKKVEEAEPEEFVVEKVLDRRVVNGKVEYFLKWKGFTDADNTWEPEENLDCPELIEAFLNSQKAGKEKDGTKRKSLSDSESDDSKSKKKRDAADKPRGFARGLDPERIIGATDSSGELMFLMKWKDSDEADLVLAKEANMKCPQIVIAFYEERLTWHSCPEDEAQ
# Results are given in words; binding and its absence hold for the method and conditions named. Binding seen in cells or lysates may run through a third protein. Some results given as binding are weak or reduced against the parent protein; the word gives no strength.
# Columns and labels:
# Experiment in all cases: co-IP
# [1] = target: GFP-tagged PRR14 1-212 fragment, wild-type (human) (UniProt Q9BWN1)
# [2] = target: GFP-tagged PRR14 1-212 fragment, HP1-binding site 2 mutant (154-155EE) (human) (UniProt Q9BWN1)
# [3] = target: GFP-tagged PRR14 1-212 fragment, double mutant (DM; 54-55EE and 154-155EE) (human) (UniProt Q9BWN1)
# [4] = target: GFP-tagged PRR14 1-212 fragment, HP1-binding site 1 mutant (54-55EE) (human) (UniProt Q9BWN1)
binding [1],binding [2],binding [3],binding [4],Substance
binds,binds,no binding,,heterochromatin protein 1 alpha (HP1α) (from UniProt P45973 1-191)
binds,binds,no binding,,heterochromatin protein 1 beta (HP1β) (from UniProt P83916 1-185)
binds,binds,no binding,binds weakly,heterochromatin protein 1 gamma (HP1γ) (from UniProt Q13185 1-183)
